These are yes or no findings as the source states them, for the method shown. For part of these data: Binding seen in cells or lysates may run through a third protein. Some binding calls cover weakened binding; strength is not graded here. For part of these data: Where a sequence is shown, tags or fusion partners need not be part of it. Blank lines part the entries; values can stand above or below the molecule they belong to.
What was measured:
Flag-tagged SMG7 (human) = target: T1, Flag-tagged SMG7 (human) (UniProt Q92540); test: co-IP; transiently expressed tagged NMD factor and endogenous NBAS, also in the absence of RNA
T1 sequence: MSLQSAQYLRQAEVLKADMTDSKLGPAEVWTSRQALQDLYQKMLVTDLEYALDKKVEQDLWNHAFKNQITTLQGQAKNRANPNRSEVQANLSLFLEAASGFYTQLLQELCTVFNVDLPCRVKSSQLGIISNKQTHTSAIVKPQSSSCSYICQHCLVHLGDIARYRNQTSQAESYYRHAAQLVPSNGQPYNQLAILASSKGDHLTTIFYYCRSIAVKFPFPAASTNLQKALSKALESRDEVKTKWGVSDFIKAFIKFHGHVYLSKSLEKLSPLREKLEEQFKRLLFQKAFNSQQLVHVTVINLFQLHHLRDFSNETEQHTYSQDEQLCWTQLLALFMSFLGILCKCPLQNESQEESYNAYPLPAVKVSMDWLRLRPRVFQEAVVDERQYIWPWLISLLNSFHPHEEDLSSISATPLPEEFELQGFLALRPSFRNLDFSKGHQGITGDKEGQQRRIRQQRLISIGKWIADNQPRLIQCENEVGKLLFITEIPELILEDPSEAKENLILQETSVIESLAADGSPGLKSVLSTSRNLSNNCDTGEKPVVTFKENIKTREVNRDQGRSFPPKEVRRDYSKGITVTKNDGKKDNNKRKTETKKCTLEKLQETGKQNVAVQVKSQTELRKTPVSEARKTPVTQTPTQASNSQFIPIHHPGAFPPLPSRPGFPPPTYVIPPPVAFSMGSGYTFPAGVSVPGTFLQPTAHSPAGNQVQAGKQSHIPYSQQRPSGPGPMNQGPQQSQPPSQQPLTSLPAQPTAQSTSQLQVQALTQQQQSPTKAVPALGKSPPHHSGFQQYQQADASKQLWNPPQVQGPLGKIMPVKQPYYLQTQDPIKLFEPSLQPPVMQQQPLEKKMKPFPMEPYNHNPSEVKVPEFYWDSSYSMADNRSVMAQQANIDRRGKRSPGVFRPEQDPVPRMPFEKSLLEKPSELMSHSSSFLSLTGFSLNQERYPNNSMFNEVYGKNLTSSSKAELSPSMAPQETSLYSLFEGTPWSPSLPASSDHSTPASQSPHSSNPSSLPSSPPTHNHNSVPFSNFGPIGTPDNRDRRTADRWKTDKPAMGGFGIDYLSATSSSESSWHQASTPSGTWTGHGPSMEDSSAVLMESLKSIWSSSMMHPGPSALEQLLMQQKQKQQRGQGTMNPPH

By UniProt entry, the sequences of proteins in these tests, tags left out.
UniProt Q86US8: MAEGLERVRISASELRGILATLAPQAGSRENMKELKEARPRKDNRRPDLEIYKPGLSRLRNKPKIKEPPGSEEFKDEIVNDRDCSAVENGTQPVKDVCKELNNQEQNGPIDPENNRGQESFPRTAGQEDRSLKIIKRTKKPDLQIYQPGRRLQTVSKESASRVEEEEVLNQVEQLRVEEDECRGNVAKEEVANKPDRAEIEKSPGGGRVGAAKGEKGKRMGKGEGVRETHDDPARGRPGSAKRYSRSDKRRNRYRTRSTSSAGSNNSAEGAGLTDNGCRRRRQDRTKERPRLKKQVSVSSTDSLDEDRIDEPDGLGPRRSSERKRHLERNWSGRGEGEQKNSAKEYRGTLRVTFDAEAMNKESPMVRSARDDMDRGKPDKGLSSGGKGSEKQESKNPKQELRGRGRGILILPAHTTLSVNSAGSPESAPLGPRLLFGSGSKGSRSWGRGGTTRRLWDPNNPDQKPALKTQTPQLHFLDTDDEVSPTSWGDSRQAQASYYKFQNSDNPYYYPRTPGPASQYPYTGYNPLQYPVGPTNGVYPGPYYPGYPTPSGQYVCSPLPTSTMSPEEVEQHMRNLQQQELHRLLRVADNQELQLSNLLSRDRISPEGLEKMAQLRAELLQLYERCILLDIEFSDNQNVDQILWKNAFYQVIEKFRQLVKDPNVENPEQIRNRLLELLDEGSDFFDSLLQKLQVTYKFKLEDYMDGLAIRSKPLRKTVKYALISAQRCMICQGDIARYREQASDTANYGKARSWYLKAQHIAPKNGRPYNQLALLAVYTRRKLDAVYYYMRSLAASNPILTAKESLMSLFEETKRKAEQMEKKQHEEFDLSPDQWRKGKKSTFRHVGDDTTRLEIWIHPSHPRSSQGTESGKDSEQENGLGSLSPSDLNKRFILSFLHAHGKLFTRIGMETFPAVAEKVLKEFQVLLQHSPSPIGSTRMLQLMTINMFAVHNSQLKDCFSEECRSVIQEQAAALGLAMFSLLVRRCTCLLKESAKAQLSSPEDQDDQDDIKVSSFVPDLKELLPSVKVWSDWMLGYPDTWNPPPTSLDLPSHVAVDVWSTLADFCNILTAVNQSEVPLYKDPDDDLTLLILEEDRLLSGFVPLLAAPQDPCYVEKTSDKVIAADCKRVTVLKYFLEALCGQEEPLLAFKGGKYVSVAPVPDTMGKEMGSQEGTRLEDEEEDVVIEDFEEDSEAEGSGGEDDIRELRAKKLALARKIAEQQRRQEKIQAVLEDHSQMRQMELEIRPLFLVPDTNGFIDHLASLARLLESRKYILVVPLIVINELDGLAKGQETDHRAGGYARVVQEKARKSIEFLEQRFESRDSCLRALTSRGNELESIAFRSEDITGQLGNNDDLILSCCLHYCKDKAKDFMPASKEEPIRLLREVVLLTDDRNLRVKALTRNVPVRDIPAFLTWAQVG
UniProt A2RRP1: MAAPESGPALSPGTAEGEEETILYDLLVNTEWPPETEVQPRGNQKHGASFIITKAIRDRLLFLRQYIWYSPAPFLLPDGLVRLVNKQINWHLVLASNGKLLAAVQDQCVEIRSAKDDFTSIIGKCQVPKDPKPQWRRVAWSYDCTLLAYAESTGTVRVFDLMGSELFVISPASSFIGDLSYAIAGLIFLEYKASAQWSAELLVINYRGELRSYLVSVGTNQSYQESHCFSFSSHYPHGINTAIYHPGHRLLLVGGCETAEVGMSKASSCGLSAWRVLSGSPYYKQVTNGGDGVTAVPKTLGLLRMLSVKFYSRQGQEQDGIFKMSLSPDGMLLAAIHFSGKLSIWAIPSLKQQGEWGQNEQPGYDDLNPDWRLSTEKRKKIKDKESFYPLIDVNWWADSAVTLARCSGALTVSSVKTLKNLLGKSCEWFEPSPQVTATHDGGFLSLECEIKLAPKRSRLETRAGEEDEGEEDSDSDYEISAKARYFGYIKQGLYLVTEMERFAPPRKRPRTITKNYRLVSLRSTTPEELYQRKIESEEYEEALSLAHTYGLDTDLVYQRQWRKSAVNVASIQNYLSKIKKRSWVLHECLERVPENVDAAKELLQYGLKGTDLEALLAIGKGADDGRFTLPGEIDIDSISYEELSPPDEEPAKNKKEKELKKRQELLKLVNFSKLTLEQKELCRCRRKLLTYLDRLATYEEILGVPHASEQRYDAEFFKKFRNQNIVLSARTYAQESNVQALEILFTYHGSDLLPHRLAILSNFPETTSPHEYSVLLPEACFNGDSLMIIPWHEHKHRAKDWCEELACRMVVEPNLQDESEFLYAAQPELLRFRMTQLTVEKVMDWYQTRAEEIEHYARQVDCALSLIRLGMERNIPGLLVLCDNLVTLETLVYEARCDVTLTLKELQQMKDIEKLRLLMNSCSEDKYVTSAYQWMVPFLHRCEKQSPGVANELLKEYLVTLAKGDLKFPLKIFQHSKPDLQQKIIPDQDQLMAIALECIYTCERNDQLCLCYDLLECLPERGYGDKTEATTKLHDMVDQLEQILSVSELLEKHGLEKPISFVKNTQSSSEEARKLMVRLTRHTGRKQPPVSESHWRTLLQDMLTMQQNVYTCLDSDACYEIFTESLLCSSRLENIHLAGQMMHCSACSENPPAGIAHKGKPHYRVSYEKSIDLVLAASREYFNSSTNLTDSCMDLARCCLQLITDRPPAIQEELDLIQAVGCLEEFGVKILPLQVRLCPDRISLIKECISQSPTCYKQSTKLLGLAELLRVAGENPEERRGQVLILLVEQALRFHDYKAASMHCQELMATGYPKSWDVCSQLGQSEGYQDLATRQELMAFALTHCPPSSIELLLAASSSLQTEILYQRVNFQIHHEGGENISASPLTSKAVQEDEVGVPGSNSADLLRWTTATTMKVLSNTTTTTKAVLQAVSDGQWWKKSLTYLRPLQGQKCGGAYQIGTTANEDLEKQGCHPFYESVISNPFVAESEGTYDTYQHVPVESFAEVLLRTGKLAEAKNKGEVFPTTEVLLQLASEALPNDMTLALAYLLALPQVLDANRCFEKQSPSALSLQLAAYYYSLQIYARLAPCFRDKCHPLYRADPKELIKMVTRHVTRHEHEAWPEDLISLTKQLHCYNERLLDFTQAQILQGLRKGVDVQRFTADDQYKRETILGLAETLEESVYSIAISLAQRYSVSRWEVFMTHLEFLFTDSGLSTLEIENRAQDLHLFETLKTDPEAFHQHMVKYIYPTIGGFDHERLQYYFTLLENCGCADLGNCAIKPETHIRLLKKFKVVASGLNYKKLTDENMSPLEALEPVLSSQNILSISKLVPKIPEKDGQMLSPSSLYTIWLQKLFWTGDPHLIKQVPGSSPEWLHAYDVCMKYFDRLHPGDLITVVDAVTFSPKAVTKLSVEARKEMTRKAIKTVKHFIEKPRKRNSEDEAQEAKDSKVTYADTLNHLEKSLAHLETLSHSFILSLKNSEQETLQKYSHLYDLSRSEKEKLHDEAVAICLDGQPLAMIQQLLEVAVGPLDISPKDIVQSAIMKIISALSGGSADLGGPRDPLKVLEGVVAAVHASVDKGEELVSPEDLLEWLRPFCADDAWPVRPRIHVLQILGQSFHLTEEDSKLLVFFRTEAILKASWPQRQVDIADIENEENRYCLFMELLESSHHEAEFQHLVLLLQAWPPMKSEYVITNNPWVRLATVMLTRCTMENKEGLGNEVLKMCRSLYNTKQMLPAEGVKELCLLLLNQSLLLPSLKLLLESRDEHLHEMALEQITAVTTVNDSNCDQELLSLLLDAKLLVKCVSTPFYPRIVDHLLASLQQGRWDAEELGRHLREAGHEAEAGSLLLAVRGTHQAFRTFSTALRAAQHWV
UniProt P60468: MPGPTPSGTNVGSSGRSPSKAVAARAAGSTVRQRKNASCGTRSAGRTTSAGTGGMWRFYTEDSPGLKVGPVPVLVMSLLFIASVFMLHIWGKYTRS

Flag-tagged UPF1 (human) = target: T2, Flag-tagged UPF1 (human) (UniProt Q92900); test: as above
T2 sequence: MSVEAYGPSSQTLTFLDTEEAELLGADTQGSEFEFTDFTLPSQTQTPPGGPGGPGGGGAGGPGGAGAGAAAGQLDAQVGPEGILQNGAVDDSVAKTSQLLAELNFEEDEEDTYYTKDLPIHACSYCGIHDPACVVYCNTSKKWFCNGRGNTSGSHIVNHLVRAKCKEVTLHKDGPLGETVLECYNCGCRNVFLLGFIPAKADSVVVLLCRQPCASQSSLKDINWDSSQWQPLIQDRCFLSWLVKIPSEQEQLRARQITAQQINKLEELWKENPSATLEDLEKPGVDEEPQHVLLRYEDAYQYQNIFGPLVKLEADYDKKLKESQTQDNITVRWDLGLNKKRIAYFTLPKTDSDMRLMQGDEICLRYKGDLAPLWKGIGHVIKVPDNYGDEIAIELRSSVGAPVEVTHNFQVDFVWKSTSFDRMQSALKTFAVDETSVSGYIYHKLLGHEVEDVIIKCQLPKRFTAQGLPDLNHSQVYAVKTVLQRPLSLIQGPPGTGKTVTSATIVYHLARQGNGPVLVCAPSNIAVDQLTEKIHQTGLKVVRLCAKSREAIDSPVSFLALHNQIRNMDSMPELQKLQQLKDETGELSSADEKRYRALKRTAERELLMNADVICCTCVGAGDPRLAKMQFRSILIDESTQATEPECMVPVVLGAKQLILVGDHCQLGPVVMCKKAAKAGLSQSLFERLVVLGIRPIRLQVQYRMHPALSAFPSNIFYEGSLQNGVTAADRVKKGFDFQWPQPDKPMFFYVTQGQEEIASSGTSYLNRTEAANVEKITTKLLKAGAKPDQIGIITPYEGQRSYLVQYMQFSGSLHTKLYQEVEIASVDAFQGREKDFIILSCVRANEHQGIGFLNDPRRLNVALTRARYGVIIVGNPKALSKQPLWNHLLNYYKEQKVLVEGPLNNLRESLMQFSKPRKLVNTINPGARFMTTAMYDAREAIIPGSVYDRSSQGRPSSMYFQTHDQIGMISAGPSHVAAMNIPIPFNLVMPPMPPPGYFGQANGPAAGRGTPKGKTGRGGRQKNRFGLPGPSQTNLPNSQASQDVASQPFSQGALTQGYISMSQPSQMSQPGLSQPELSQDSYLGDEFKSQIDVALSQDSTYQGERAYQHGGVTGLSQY

Flag-tagged SMG6 (human) = Flag-tagged SMG6 (human) (UniProt Q86US8); test: as above
[1] = target: T3, full-length tagged RNA helicase DHX34 (UniProt Q14147); test: as above
T3 sequence: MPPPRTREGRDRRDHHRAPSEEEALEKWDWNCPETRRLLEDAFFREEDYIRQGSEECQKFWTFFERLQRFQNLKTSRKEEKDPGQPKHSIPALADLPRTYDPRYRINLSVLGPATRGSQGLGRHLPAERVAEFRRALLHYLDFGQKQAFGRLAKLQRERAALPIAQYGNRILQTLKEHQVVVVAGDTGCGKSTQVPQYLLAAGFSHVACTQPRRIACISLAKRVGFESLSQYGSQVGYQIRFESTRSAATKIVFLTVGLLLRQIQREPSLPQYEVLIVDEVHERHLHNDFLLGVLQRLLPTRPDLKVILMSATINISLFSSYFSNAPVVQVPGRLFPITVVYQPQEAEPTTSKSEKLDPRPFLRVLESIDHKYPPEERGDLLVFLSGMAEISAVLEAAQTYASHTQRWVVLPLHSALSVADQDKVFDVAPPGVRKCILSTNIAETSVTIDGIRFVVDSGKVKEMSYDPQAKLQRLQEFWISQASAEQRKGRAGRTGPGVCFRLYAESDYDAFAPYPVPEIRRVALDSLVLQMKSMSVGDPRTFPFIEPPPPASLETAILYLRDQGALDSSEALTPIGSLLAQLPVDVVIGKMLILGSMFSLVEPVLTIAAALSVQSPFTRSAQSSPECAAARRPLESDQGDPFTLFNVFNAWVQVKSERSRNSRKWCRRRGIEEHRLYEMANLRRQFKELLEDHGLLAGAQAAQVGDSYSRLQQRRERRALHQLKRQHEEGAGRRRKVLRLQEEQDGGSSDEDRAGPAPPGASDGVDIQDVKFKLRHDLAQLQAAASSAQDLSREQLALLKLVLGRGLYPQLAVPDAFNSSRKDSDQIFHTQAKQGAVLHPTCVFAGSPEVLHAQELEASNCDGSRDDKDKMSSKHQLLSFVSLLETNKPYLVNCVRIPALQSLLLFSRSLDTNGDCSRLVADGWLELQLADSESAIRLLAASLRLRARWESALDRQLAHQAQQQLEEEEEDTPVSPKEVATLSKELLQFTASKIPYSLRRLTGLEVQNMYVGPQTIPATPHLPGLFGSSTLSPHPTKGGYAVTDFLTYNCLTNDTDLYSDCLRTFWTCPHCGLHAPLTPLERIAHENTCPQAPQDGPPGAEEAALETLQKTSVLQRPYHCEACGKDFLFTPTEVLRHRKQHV

GFP-NBAS (human), A2RRP1 [2] = test: fluorescence cross-correlation spectroscopy (FCCS); live HeLa cells transiently expressing GFP-NBAS and mCherry-UPF1 or mCherry; weakly expressing cells; settings: remark: other sources report otherwise
GFP-NBAS (human), A2RRP1 [3] = test: FRET or BRET; FRET-FLIM; GFP-NBAS donor and mCherry-UPF1 acceptor in fixed HeLa cells 48 h after transfection; donor fluorescence lifetime; settings: remark: other sources report otherwise
[4] = target: Flag-tagged NBAS (human), A2RRP1; test: co-IP; Flag-tagged NBAS and endogenous UPF1, HeLa cells, also in the absence of RNA; settings: remark: other sources report otherwise
[5] = target: NBAS (neuroblastoma amplified sequence), endogenous (human (endogenous in HeLa)), A2RRP1; test: proximity ligation; Duolink PLA on fixed, permeabilised cells with primary antibodies to the two proteins; settings: remark: other sources report otherwise
[6] = target: SEC61B (human (endogenous in HeLa)) (UniProt P60468); test: as above

binding (GFP-NBAS (human), A2RRP1 [2]): binds
binding (GFP-NBAS (human), A2RRP1 [3]): binds
B1: mCherry-UPF1, Q92900 1-1129 (protein)
chain: MSVEAYGPSSQTLTFLDTEEAELLGADTQGSEFEFTDFTLPSQTQTPPGGPGGPGGGGAGGPGGAGAGAAAGQLDAQVGPEGILQNGAVDDSVAKTSQLLAELNFEEDEEDTYYTKDLPIHACSYCGIHDPACVVYCNTSKKWFCNGRGNTSGSHIVNHLVRAKCKEVTLHKDGPLGETVLECYNCGCRNVFLLGFIPAKADSVVVLLCRQPCASQSSLKDINWDSSQWQPLIQDRCFLSWLVKIPSEQEQLRARQITAQQINKLEELWKENPSATLEDLEKPGVDEEPQHVLLRYEDAYQYQNIFGPLVKLEADYDKKLKESQTQDNITVRWDLGLNKKRIAYFTLPKTDSGNEDLVIIWLRDMRLMQGDEICLRYKGDLAPLWKGIGHVIKVPDNYGDEIAIELRSSVGAPVEVTHNFQVDFVWKSTSFDRMQSALKTFAVDETSVSGYIYHKLLGHEVEDVIIKCQLPKRFTAQGLPDLNHSQVYAVKTVLQRPLSLIQGPPGTGKTVTSATIVYHLARQGNGPVLVCAPSNIAVDQLTEKIHQTGLKVVRLCAKSREAIDSPVSFLALHNQIRNMDSMPELQKLQQLKDETGELSSADEKRYRALKRTAERELLMNADVICCTCVGAGDPRLAKMQFRSILIDESTQATEPECMVPVVLGAKQLILVGDHCQLGPVVMCKKAAKAGLSQSLFERLVVLGIRPIRLQVQYRMHPALSAFPSNIFYEGSLQNGVTAADRVKKGFDFQWPQPDKPMFFYVTQGQEEIASSGTSYLNRTEAANVEKITTKLLKAGAKPDQIGIITPYEGQRSYLVQYMQFSGSLHTKLYQEVEIASVDAFQGREKDFIILSCVRANEHQGIGFLNDPRRLNVALTRARYGVIIVGNPKALSKQPLWNHLLNYYKEQKVLVEGPLNNLRESLMQFSKPRKLVNTINPGARFMTTAMYDAREAIIPGSVYDRSSQGRPSSMYFQTHDQIGMISAGPSHVAAMNIPIPFNLVMPPMPPPGYFGQANGPAAGRGTPKGKTGRGGRQKNRFGLPGPSQTNLPNSQASQDVASQPFSQGALTQGYISMSQPSQMSQPGLSQPELSQDSYLGDEFKSQIDVALSQDSTYQGERAYQHGGVTGLSQY

binding [4]: binds
binding [5]: binds
B2: UPF1, endogenous, Q92900 1-1129 (protein)
chain: B1 chain

More lines, now with the values behind:

Molecule: NBAS (neuroblastoma amplified sequence), endogenous (from UniProt A2RRP1 1-2371)
binding (Flag-tagged SMG7 (human)): binds
binding (Flag-tagged UPF1 (human)): binds
binding (Flag-tagged SMG6 (human)): binds
binding [1]: binds

B3: UPF1, endogenous (protein, UniProt Q92900 1-1129)
chain: B1 chain
binding [6]: binds
